Test results from publication PMC6853375.
Results are given in words; binding and its absence hold for the method and conditions named. Binding seen in cells or lysates may run through a third protein. A yes stands for co-enrichment or nearness to the bait. Other partners may have been found.

Protein sequences, listed by entry. Tags and fused reporters are not part of them.
UniProt P06748: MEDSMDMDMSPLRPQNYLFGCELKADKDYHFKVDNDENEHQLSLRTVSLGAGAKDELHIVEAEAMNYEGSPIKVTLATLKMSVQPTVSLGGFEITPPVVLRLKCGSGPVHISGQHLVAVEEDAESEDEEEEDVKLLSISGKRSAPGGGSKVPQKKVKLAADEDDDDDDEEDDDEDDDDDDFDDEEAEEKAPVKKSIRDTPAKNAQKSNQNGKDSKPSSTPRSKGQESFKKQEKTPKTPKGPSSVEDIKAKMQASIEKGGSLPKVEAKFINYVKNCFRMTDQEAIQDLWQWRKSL
UniProt Q09028: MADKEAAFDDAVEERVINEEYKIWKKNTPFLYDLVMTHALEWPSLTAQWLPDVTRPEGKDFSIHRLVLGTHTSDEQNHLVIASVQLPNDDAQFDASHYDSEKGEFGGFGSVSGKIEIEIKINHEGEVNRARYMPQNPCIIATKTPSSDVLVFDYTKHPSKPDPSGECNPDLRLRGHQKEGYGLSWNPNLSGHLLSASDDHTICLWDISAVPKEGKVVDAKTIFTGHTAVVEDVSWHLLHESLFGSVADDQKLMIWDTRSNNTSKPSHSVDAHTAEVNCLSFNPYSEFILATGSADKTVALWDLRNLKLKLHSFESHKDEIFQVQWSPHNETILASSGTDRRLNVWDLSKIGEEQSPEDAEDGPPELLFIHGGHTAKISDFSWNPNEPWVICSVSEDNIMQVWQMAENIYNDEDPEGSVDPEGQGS
UniProt Q6STE5: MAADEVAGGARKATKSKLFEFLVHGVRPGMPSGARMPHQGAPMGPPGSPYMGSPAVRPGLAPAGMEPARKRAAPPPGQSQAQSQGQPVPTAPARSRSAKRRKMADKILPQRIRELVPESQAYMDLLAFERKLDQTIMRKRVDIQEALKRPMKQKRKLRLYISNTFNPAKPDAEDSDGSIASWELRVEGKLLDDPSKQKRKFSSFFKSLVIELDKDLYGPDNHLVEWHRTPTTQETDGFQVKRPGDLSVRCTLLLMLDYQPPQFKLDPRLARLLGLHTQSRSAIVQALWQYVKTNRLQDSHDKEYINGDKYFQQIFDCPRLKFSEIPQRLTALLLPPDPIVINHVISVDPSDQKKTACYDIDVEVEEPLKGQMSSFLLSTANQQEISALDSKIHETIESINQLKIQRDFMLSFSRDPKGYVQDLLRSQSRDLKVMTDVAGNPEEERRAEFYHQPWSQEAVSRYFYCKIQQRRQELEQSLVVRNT
UniProt Q12824: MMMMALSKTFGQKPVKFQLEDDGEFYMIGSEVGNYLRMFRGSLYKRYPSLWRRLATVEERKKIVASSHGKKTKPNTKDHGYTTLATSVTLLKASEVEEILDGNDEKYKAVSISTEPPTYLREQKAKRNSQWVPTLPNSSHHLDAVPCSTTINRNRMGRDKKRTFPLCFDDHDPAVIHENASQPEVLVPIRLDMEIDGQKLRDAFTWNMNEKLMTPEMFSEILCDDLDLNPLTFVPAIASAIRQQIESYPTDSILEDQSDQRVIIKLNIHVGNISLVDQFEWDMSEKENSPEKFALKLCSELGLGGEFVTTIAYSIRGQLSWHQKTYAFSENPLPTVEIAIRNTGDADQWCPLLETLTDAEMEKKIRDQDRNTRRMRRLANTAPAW
UniProt O60264: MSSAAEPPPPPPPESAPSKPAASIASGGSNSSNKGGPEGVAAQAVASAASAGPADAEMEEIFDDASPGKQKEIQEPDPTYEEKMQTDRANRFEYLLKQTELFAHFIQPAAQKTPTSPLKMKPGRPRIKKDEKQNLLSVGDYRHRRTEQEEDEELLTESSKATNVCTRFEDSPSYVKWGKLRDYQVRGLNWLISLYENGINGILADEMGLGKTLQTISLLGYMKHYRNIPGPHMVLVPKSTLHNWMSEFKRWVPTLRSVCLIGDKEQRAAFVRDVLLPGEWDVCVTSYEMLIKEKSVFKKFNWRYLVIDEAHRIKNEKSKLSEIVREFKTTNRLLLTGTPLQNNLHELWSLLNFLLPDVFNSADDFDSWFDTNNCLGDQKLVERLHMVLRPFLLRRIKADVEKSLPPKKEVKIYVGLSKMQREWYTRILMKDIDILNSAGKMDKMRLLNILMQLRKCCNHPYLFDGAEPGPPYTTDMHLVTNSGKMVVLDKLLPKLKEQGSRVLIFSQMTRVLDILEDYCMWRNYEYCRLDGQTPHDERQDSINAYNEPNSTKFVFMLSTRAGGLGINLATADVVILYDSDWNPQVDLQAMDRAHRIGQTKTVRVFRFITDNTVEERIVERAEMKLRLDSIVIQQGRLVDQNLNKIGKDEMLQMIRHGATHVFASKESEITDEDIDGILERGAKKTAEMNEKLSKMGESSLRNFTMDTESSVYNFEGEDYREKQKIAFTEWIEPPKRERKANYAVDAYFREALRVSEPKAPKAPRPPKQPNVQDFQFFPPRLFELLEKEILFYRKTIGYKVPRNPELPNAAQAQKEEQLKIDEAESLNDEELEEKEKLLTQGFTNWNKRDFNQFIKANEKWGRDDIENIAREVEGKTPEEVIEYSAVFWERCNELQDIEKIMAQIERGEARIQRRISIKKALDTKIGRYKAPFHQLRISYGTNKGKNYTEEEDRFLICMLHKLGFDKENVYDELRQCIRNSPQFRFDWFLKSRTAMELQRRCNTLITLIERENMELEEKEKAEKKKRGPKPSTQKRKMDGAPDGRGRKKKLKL
UniProt Q96GM5: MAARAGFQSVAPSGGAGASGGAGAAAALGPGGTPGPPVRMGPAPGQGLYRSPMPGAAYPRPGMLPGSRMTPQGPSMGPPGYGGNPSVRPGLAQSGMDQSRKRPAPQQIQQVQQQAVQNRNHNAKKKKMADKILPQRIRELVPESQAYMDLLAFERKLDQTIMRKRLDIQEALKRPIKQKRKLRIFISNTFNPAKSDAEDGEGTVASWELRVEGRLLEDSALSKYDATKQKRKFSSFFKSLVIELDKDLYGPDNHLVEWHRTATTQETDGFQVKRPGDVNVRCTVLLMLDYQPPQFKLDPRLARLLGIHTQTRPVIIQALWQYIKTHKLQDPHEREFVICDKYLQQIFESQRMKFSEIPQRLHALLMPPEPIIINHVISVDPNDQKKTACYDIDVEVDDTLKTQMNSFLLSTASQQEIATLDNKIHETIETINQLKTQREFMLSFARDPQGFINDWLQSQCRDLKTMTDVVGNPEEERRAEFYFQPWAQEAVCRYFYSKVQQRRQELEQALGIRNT
UniProt P51531: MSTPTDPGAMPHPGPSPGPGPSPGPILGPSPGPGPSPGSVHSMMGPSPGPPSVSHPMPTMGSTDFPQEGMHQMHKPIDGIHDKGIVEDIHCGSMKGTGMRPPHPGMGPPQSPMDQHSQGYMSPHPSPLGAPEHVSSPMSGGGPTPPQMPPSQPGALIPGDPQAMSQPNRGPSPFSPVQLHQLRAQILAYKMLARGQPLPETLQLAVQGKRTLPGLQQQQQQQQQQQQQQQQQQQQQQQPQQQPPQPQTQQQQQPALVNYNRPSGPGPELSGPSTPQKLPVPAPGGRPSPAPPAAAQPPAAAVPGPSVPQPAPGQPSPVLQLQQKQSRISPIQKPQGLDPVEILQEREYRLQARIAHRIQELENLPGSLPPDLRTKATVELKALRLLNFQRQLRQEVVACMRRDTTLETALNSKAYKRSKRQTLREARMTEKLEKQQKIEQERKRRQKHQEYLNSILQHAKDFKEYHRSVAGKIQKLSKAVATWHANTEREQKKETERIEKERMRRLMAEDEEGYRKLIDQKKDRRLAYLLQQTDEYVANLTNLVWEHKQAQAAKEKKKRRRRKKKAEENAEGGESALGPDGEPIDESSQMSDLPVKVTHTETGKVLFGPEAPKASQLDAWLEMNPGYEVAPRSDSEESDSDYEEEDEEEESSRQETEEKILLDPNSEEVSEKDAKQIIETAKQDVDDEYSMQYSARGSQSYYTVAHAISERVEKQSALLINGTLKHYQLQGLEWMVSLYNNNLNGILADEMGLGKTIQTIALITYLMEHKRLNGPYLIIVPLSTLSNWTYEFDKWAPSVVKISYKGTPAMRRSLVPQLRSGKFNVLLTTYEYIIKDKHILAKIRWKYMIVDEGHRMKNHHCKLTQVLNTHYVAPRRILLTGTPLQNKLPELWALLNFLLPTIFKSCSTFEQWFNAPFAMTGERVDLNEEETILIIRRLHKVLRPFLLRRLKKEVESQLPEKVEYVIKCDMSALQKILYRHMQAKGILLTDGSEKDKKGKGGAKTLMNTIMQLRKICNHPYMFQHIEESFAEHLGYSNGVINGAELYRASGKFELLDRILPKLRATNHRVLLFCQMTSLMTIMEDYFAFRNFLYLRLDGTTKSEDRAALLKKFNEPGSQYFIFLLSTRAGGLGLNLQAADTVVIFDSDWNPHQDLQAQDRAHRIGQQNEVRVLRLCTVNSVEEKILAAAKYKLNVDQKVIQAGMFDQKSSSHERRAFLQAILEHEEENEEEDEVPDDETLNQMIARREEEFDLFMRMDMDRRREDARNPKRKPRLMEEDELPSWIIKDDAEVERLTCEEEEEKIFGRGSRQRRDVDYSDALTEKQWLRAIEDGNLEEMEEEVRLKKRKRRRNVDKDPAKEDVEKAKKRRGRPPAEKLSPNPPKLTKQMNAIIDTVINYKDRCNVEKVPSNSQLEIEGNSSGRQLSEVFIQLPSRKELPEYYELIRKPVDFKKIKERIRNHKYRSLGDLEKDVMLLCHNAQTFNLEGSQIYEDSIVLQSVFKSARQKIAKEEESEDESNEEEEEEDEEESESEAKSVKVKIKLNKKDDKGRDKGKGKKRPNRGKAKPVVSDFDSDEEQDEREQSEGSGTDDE
UniProt Q92769: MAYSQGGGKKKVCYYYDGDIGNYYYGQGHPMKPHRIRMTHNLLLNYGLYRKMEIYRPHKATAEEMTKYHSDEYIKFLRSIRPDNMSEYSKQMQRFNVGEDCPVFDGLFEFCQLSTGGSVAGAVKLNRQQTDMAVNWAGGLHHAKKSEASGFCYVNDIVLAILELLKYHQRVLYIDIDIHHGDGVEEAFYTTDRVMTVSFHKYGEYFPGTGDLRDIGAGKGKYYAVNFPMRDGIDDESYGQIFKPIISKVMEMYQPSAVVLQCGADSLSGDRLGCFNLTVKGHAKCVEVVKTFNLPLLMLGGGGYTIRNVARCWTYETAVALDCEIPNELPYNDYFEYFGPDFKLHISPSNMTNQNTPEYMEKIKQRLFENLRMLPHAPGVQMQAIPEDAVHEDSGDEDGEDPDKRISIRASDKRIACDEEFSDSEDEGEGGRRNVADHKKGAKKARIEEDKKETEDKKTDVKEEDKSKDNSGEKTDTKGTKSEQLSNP
UniProt P28370: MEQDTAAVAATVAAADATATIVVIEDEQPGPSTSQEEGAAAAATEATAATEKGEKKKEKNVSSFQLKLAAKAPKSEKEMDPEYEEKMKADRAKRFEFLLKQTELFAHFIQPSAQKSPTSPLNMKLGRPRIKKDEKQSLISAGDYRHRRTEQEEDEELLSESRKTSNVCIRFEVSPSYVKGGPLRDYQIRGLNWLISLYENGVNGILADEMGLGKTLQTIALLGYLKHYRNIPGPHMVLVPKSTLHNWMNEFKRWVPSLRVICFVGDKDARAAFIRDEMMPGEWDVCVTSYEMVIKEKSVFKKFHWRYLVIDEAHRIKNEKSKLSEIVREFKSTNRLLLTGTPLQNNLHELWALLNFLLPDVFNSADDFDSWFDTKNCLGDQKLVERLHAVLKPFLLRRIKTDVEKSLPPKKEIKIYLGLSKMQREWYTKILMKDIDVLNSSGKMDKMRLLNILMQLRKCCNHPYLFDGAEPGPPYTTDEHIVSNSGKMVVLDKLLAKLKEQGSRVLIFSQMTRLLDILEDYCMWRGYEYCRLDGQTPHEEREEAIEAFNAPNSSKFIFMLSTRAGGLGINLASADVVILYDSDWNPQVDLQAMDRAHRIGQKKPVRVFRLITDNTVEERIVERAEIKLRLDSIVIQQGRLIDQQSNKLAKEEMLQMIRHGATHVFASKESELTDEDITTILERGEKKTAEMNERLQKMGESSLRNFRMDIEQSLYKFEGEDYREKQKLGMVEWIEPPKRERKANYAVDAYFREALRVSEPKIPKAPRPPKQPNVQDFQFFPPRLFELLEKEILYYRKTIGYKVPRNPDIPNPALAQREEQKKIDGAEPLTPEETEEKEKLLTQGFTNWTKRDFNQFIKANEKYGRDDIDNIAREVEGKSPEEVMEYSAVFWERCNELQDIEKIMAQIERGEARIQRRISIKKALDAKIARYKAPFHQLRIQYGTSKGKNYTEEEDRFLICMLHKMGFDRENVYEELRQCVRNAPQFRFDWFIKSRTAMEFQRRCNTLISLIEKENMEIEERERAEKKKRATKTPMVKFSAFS

Legend:
Flag-HA-NPM [1] = biological target: Flag-HA-NPM (UniProt P06748); experiment: affinity purification with mass spectrometry; Flag immunoaffinity purification of FH-NPM or FH-NPM-MLF1 from K562 nuclear extracts, then size exclusion chromatography (Superose 6); fractions from 2000 kDa to 600 kDa regrouped in three peaks; LC-MS/MS
Flag-HA-NPM [2] = biological target: Flag-HA-NPM (UniProt P06748); experiment: affinity purification with mass spectrometry; Flag-HA sequential immunoaffinity purification (TAP-Tag) from 20 mg nuclear lysate of K562 MOCK, NPM or NPM-MLF1 cells; elution with Flag or HA peptides; LC-MS/MS

Row | binding (Flag-HA-NPM [1]) | binding (Flag-HA-NPM [2]) | Molecule
1 |  | binds | SMARCC1 (BAF155) (from UniProt Q92922 1-1105)
2 | binds |  | RBBP4 (from UniProt Q09028 1-425)
3 | binds |  | CHD3 (from UniProt Q12873 1-2000)
4 | binds |  | SMARCD3 (from UniProt Q6STE5 1-483)
5 | binds |  | CHD4 (from UniProt Q14839 1-1912)
6 | binds | binds | BAF180 (PBRM1) (from UniProt Q86U86 1-1689)
7 | binds | binds | SMARCB1 (SNF5) (from UniProt Q12824 1-385)
8 | binds | binds | SMARCA5 (SNF2H) (from UniProt O60264 1-1052)

Continued, molecule first:

Row | Molecule | binding (Flag-HA-NPM [1]) | binding (Flag-HA-NPM [2])
9 | SMARCD1 (BAF60A) (from UniProt Q96GM5 1-515) | binds | binds
10 | SMARCA2 (BRM) (from UniProt P51531 1-1590) | binds | 
11 | ACTL6A (from UniProt O96019 1-429) |  | binds
12 | HDAC2 (from UniProt Q92769 1-488) | binds | 
13 | SMARCA1 (SNF2L) (from UniProt P28370 1-1042) | binds | binds
14 | DDX21 (from UniProt Q9NR30 1-783) |  | binds
15 | HDAC1 (from UniProt Q13547 1-482) | binds | binds
16 | SMARCC2 (BAF170) (from UniProt Q8TAQ2 1-1214) | binds | binds
17 | SMARCA4 (BRG1) (from UniProt P51532 1-1647) | binds | binds
18 | SMARCD2 (BAF60B) (from UniProt Q92925 1-531) | binds | binds
19 | BRD7 (from UniProt Q9NPI1 1-651) | binds | 
20 | SMARCE1 (BAF57) (from UniProt Q969G3 1-411) | binds | 
21 | MYBBP1A (protein, UniProt Q9BQG0 1-1328) MESRDPAQPMSPGEATQSGARPADRYGLLKHSREFLDFFWDIAKPEQETRLAATEKLLEYLRGRPKGSEMKYALKRLITGLGVGRETARPCYSLALAQLLQSFEDLPLCSILQQIQEKYDLHQVKKAMLRPALFANLFGVLALFQSGRLVKDQEALMKSVKLLQALAQYQNHLQEQPRKALVDILSEVSKATLQEILPEVLKADLNIILSSPEQLELFLLAQQKVPSKLKKLVGSVNLFSDENVPRLVNVLKMAASSVKKDRKLPAIALDLLRLALKEDKFPRFWKEVVEQGLLKMQFWPASYLCFRLLGAALPLLTKEQLHLVMQGDVIRHYGEHVCTAKLPKQFKFAPEMDDYVGTFLEGCQDDPERQLAVLVAFSSVTNQGLPVTPTFWRVVRFLSPPALQGYVAWLRAMFLQPDLDSLVDFSTNNQKKAQDSSLHMPERAVFRLRKWIIFRLVSIVDSLHLEMEEALTEQVARFCLFHSFFVTKKPTSQIPETKHPFSFPLENQAREAVSSAFFSLLQTLSTQFKQAPGQTQGGQPWTYHLVQFADLLLNHSHNVTTVTPFTAQQRQAWDRMLQTLKELEAHSAEARAAAFQHLLLLVGIHLLKSPAESCDLLGDIQTCIRKSLGEKPRRSRTKTIDPQEPPWVEVLVEILLALLAQPSHLMRQVARSVFGHICSHLTPRALQLILDVLNPETSEDENDRVVVTDDSDERRLKGAEDKSEEGEDNRSSESEEESEGEESEEEERDGDVDQGFREQLMTVLQAGKALGGEDSENEEELGDEAMMALDQSLASLFAEQKLRIQARRDEKNKLQKEKALRRDFQIRVLDLVEVLVTKQPENALVLELLEPLLSIIRRSLRSSSSKQEQDLLHKTARIFTHHLCRARRYCHDLGERAGALHAQVERLVQQAGRQPDSPTALYHFNASLYLLRVLKGNTAEGCVHETQEKQKAGTDPSHMPTGPQAASCLDLNLVTRVYSTALSSFLTKRNSPLTVPMFLSLFSRHPVLCQSLLPILVQHITGPVRPRHQACLLLQKTLSMREVRSCFEDPEWKQLMGQVLAKVTENLRVLGEAQTKAQHQQALSSLELLNVLFRTCKHEKLTLDLTVLLGVLQGQQQSLQQGAHSTGSSRLHDLYWQAMKTLGVQRPKLEKKDAKEIPSATQSPISKKRKKKGFLPETKKRKKRKSEDGTPAEDGTPAATGGSQPPSMGRKKRNRTKAKVPAQANGTPTTKSPAPGAPTRSPSTPAKSPKLQKKNQKPSQVNGAPGSPTEPAGQKQHQKALPKKGVLGKSPLSALARKKARLSLVIRSPSLLQSGAKKKAQVRKAGKP |  | binds
22 | WSTF (BAZ1B) (protein, UniProt Q9UIG0 1-1483) MAPLLGRKPFPLVKPLPGEEPLFTIPHTQEAFRTREEYEARLERYSERIWTCKSTGSSQLTHKEAWEEEQEVAELLKEEFPAWYEKLVLEMVHHNTASLEKLVDTAWLEIMTKYAVGEECDFEVGKEKMLKVKIVKIHPLEKVDEEATEKKSDGACDSPSSDKENSSQIAQDHQKKETVVKEDEGRRESINDRARRSPRKLPTSLKKGERKWAPPKFLPHKYDVKLQNEDKIISNVPADSLIRTERPPNKEIVRYFIRHNALRAGTGENAPWVVEDELVKKYSLPSKFSDFLLDPYKYMTLNPSTKRKNTGSPDRKPSKKSKTDNSSLSSPLNPKLWCHVHLKKSLSGSPLKVKNSKNSKSPEEHLEEMMKMMSPNKLHTNFHIPKKGPPAKKPGKHSDKPLKAKGRSKGILNGQKSTGNSKSPKKGLKTPKTKMKQMTLLDMAKGTQKMTRAPRNSGGTPRTSSKPHKHLPPAALHLIAYYKENKDREDKRSALSCVISKTARLLSSEDRARLPEELRSLVQKRYELLEHKKRWASMSEEQRKEYLKKKREELKKKLKEKAKERREKEMLERLEKQKRYEDQELTGKNLPAFRLVDTPEGLPNTLFGDVAMVVEFLSCYSGLLLPDAQYPITAVSLMEALSADKGGFLYLNRVLVILLQTLLQDEIAEDYGELGMKLSEIPLTLHSVSELVRLCLRRSDVQEESEGSDTDDNKDSAAFEDNEVQDEFLEKLETSEFFELTSEEKLQILTALCHRILMTYSVQDHMETRQQMSAELWKERLAVLKEENDKKRAEKQKRKEMEAKNKENGKVENGLGKTDRKKEIVKFEPQVDTEAEDMISAVKSRRLLAIQAKKEREIQEREMKVKLERQAEEERIRKHKAAAEKAFQEGIAKAKLVMRRTPIGTDRNHNRYWLFSDEVPGLFIEKGWVHDSIDYRFNHHCKDHTVSGDEDYCPRSKKANLGKNASMNTQHGTATEVAVETTTPKQGQNLWFLCDSQKELDELLNCLHPQGIRESQLKERLEKRYQDIIHSIHLARKPNLGLKSCDGNQELLNFLRSDLIEVATRLQKGGLGYVEETSEFEARVISLEKLKDFGECVIALQASVIKKFLQGFMAPKQKRRKLQSEDSAKTEEVDEEKKMVEEAKVASALEKWKTAIREAQTFSRMHVLLGMLDACIKWDMSAENARCKVCRKKGEDDKLILCDECNKAFHLFCLRPALYEVPDGEWQCPACQPATARRNSRGRNYTEESASEDSEDDESDEEEEEEEEEEEEEDYEVAGLRLRPRKTIRGKHSVIPPAARSGRRPGKKPHSTRRSQPKAPPVDDAEVDELVLQTKRSSRRQSLELQKCEEILHKIVKYRFSWPFREPVTRDEAEDYYDVITHPMDFQTVQNKCSCGSYRSVQEFLTDMKQVFTNAEVYNCRGSHVLSCMVKTEQCLVALLHKHLPGHPYVRRKRKKFPDRLAEDEGDSEPEAVGQSRGRRQKK | binds | binds
23 | DEK (protein, UniProt P35659 1-375) MSASAPAAEGEGTPTQPASEKEPEMPGPREESEEEEDEDDEEEEEEEKEKSLIVEGKREKKKVERLTMQVSSLQREPFTIAQGKGQKLCEIERIHFFLSKKKTDELRNLHKLLYNRPGTVSSLKKNVGQFSGFPFEKGSVQYKKKEEMLKKFRNAMLKSICEVLDLERSGVNSELVKRILNFLMHPKPSGKPLPKSKKTCSKGSKKERNSSGMARKAKRTKCPEILSDESSSDEDEKKNKEESSDDEDKESEEEPPKKTAKREKPKQKATSKSKKSVKSANVKKADSSTTKKNQNSSKKESESEDSSDDEPLIKKLKKPPTDEELKETIKKLLASANLEEVTMKQICKKVYENYPTYDLTERKDFIKTTVKELIS |  | binds
